Results as given in patent US20220378825A1.
No constants are given. Whether binding was seen depends on the method and setting. Some entries that bind do so weakly or less than the wild type.

By UniProt entry, the sequences of proteins in these tests, tags left out. Residues count along the entry.
UniProt P13747, residues 22-358: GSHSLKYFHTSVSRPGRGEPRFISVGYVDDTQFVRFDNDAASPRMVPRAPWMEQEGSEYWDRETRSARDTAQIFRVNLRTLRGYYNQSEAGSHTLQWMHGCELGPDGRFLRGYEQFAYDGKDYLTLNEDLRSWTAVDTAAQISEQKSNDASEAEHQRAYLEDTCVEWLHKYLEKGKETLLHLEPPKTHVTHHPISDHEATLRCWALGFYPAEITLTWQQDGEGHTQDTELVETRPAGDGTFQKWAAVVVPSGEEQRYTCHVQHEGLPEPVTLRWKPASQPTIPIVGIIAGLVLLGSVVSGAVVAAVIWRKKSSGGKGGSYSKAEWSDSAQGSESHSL

Molecular target: Human leukocyte antigen (HLA) system E; HLA class I histocompatibility antigen, alpha chain E (HLA-E) (human) (UniProt P13747)
Assay: peptide pulsing of dendritic cells, then PFA fixation; no direct binding read-out printed

binding: binds
B1: human heat shock protein 60 signal peptide (hHsp60sp) (peptide)
peptide: QMRPVSRVL
